This is an account of results in the supplement of paper PMC8728848.

Assay [1] addresses Neu5Gc(a2-8)Neu5Gc(a2-6)Gal(b1-4)GlcNAc. Description: glycan array binding signal (z-score within array); higher = stronger binding. Particulars: glycan notation: IUPAC condensed, linker removed. The procedure, abridged:
(§1)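 The Consortium for Functional Glycomics database supplied 3228 glycan arrays, of which those lacking an available protein sequence were dropped. The binding signal, a within-array Z-score, was averaged across arrays of the same protein sequence and across linkers. Negative scores can be read as non-binding.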

Assay [2] concerns the target Neu5Gc(b2-6)Gal(b1-4)GlcNAc. The description is as above. The settings on record: glycan notation: IUPAC condensed, linker removed. The procedure, abridged:
as §1

The list shows a part of the results.

B1: PX14375D-bvu-513-34-513 (Bacteroides vulgatus) (protein)
chain: TEDTFWKDETDFNLALTSCYTPLKNALNGGYYGTRGVMLRIARADEVDFRNDISDVYTVNRFTNSNTNSLTQGMFYQFYNALYRTNSIMQKLEEKKEQFSTDFQNSVKGECLFIRGFYLFQLAKEFKDAPLRLTASQSPSTFPLAKSSQADIWAQAKEDLKTAASLLPITNKIGKPTQGAAYAALGKIYVYEENWQEAINVLEPLTQNPYTYKLVEDFNWNFDDTHENNAESIFELLIEDVGGTDLWGDGENINSTQSNTRPKEYAAAEVGGWYEANPTQQIMDIFWKEKDKDGNFDYRARCSVAWDYEGCTYYQRPFREVFAQDKWKTYWILKYQNWKTQKDEPAPPKSFINERAIRYADVLLMLAEAYMNKGALDTSIGYINQIRRRANLNDYSGPITKEGVFEDLVHQRAIEFFVEGERFYDLRRWGLLEQTLKTCDDTRYKNYQTGKSDNINKFNYFPIPAKELDTNPLCTPSEGW
Regarding B1, the “glycan array binding signal (z-score)” value in assay [1] is -0.436; in assay [2], -0.088.
